Results are given in words; binding and its absence hold for the method and conditions named. In cells and extracts the contact can be indirect. Some binding calls cover weakened binding; strength is not graded here.
Experiments:
[1] = target: T1, MYO1F, expressed from a plasmid in HEK293T cells (UniProt O00160); assay: co-IP; HEK293T cells transfected with plasmids; lysates immunoprecipitated with anti-Flag antibody, immunoblot
T1 sequence: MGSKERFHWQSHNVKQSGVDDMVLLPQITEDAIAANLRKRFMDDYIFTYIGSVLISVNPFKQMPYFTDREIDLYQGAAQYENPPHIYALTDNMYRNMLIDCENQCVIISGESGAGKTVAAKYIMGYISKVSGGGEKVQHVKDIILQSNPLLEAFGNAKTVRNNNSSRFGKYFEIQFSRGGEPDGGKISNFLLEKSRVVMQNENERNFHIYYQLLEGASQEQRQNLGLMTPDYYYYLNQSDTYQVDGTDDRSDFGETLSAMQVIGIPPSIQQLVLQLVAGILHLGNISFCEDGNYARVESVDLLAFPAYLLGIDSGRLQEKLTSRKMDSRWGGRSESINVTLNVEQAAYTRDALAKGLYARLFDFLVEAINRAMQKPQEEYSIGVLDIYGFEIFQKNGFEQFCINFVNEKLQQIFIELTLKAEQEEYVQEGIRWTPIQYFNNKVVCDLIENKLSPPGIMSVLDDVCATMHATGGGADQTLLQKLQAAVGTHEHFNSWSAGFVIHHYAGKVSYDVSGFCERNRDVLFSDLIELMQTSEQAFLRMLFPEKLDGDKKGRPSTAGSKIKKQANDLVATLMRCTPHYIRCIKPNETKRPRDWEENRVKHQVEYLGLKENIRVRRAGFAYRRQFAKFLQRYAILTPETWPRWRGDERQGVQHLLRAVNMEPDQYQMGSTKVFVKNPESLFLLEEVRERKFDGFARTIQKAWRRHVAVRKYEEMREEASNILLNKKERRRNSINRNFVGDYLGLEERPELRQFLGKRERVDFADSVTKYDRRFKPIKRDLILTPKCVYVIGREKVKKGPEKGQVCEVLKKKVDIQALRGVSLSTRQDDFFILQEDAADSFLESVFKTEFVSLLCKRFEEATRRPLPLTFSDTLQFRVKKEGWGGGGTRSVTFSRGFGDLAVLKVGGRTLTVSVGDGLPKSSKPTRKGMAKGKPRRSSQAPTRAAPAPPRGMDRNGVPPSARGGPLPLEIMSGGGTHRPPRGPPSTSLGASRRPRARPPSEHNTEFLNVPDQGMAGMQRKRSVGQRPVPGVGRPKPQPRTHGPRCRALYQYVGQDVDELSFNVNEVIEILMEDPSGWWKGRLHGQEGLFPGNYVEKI

The chains behind the UniProt entries cited, without tags or fusion partners.
UniProt O95782: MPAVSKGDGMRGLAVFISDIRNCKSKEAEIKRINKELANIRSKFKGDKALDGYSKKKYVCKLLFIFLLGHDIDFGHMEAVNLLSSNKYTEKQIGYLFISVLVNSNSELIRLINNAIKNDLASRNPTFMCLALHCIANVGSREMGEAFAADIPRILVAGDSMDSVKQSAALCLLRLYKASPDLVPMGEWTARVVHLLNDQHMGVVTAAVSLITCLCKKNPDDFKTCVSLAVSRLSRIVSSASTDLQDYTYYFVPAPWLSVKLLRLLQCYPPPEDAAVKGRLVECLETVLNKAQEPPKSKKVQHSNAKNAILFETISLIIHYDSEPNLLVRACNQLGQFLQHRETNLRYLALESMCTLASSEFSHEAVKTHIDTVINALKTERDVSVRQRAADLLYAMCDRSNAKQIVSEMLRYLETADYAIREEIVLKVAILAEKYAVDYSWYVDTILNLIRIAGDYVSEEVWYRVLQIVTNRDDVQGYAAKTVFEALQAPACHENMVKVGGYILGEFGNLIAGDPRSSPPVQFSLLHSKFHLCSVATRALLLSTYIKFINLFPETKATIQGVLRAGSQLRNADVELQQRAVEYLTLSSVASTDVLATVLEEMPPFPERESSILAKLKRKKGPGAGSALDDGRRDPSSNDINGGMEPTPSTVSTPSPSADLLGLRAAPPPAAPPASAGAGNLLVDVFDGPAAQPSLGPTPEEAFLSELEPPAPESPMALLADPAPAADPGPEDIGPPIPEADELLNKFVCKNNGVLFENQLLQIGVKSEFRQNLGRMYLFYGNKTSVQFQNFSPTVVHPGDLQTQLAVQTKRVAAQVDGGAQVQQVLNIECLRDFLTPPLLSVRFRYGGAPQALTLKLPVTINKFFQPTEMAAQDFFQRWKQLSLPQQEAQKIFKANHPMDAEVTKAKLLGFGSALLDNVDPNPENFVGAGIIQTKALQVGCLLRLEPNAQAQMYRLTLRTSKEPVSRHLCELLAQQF

[2] = target: AP2A1, endogenous in THP-1 cells (human (endogenous in THP-1)) (UniProt O95782); assay: co-IP; endogenous proteins; WT control THP-1 cells (and MYO1F-KO cells for comparison) stimulated with HKCA (MOI = 2); lysates immunoprecipitated with anti-AP2A1 or anti-MYO1F antibody, Western blot

“AP2A1, expressed from a plasmid in HEK293T cells (from UniProt O95782 1-977)” was tested. Which binding [1] did it give?
The binding was “binds”.

B1: MYO1F, endogenous in THP-1 cells (protein, UniProt O00160 1-1098)
chain: MGSKERFHWQSHNVKQSGVDDMVLLPQITEDAIAANLRKRFMDDYIFTYIGSVLISVNPFKQMPYFTDREIDLYQGAAQYENPPHIYALTDNMYRNMLIDCENQCVIISGESGAGKTVAAKYIMGYISKVSGGGEKVQHVKDIILQSNPLLEAFGNAKTVRNNNSSRFGKYFEIQFSRGGEPDGGKISNFLLEKSRVVMQNENERNFHIYYQLLEGASQEQRQNLGLMTPDYYYYLNQSDTYQVDGTDDRSDFGETLSAMQVIGIPPSIQQLVLQLVAGILHLGNISFCEDGNYARVESVDLLAFPAYLLGIDSGRLQEKLTSRKMDSRWGGRSESINVTLNVEQAAYTRDALAKGLYARLFDFLVEAINRAMQKPQEEYSIGVLDIYGFEIFQKNGFEQFCINFVNEKLQQIFIELTLKAEQEEYVQEGIRWTPIQYFNNKVVCDLIENKLSPPGIMSVLDDVCATMHATGGGADQTLLQKLQAAVGTHEHFNSWSAGFVIHHYAGKVSYDVSGFCERNRDVLFSDLIELMQTSEQAFLRMLFPEKLDGDKKGRPSTAGSKIKKQANDLVATLMRCTPHYIRCIKPNETKRPRDWEENRVKHQVEYLGLKENIRVRRAGFAYRRQFAKFLQRYAILTPETWPRWRGDERQGVQHLLRAVNMEPDQYQMGSTKVFVKNPESLFLLEEVRERKFDGFARTIQKAWRRHVAVRKYEEMREEASNILLNKKERRRNSINRNFVGDYLGLEERPELRQFLGKRERVDFADSVTKYDRRFKPIKRDLILTPKCVYVIGREKVKKGPEKGQVCEVLKKKVDIQALRGVSLSTRQDDFFILQEDAADSFLESVFKTEFVSLLCKRFEEATRRPLPLTFSDTLQFRVKKEGWGGGGTRSVTFSRGFGDLAVLKVGGRTLTVSVGDGLPKSSKPTRKGMAKGKPRRSSQAPTRAAPAPPRGMDRNGVPPSARGGPLPLEIMSGGGTHRPPRGPPSTSLGASRRPRARPPSEHNTEFLNVPDQGMAGMQRKRSVGQRPVPGVGRPKPQPRTHGPRCRALYQYVGQDVDELSFNVNEVIEILMEDPSGWWKGRLHGQEGLFPGNYVEKI
Which binding [2] does the source give for B1 here?
The binding was “binds”.

From PMC8325298
